# These are yes or no findings as the source states them, for the method shown. A result given as binding can be weak or reduced; the word gives no strength.
# Biological target: TssB1C1 (P. aeruginosa)
# Experiment: two-hybrid; bacterial two-hybrid (BTH): T18 and T25 fusions from pKT25 or pUT18C co-transformed into E. coli DHM1; spotted on LB agar with 1 mM IPTG and 100 µg/ml X-Gal, 30 °C, 24 or 40 h; blue colour on interaction
binder,measurement,value
"TssA1 (protein, UniProt Q9I750 1-344) MLDVPVLLAAVSPDSPCGDDLEYDAAFLELERIAQGQPERQMGDAVLPAEPPEWPRVRALASELFGRSKDLRVANLLLQSNVALDGLDGLADGLLLVRELLGQYWDGVYPLLDADDDNDPTFRINALTGLVAEPLLQLVWAIPLVRSRAFGPVNLRAALNAAGLQRFASETLSPEQIAGAFADADADALAATRRALDGAQEHALAIESGVAERVGSAQGLDLGPLRQLLRQALQVFDLYGPQGAGESLAPGAEAVADEQVGAAPVAAVAAPAPRASGEIANREDVLRQLDRLLEYYVRHEPSSPVPVLLKRAKTLVTADFAEIVRNLIPDGISQFETLRGPESE",binding,binds

# From article PMC11106082
